# Data taken from patent US8198462B2, “Dendritic photoactive compound comprising oxime ester and method for preparing the same” (LG Chem, Ltd., priority 2007, dated 2012).
# Assay: Photosensitivity by FT-IR: acrylate consumption in a thin film after irradiation
# Conditions: 2 micron thin film with 2 moles pentaerythritol triacrylate, light of maximum absorption wavelength, 30 mW/cm^2 for 10 min
# Protocol: For the comparison of the photosensitivities of the compounds that comprised oxime ester, in conjunction with Irgacure OXE-02 (Comparative Example 2) of Ciba Specialty Chemical, the photosensitivities of the compounds of Examples were measured by using the FT-IR. After the photoinitiator and 2 moles of pentaerythritol triacrylate were dissolved in 10 g of cyclohexanone, it was spin coated on the glass substrate to form a thin film that had the thickness of 2 microns, and the thin film was heated at 100° C. for 2 min by using the hot plate to remove the solvent. The FT-IR of the thin film was measured, light of the maximum absorption wavelength of each sample was irradiated in the intensity of 30 mW/cm^2 for 10 min, and the consumption amounts of acrylate were compared to each other. The high pressure mercury lamp was used as the light source, and the wavelength was tested by the optical filter (the products that were manufactured by Mellis-Griot, Co., Ltd).
row,Compound,Consumption amount of acrylate
1,CCn1c2ccc(/C(CC(c3cccs3)N(OC(C)=O)C(C)=O)=N/OC(C)=O)cc2c2cc(/C(CC(c3cccs3)N(OC(C)=O)C(C)=O)=N/OC(C)=O)ccc21 (stereo not drawn) [Example 4],5.8 mol
2,"CCn1c2ccc(C(=O)c3ccccc3C)cc2c2cc(/C(C)=N/OC(C)=O)ccc21 [Comparative Example 1, reference compound]",5.4 mol
3,CSc1ccc(C(C/C(=N\OC(C)=O)c2ccc(/C(CC(c3ccc(SC)cc3)N(OC(C)=O)C(C)=O)=N/OC(C)=O)cc2)N(OC(C)=O)C(C)=O)cc1 (stereo not drawn) [Example 2],6.2 mol
4,CC(=O)O/N=C(\CC(c1ccc(C(C/C(=N\OC(C)=O)c2ccccc2)N(OC(C)=O)C(C)=O)cc1)N(OC(C)=O)C(C)=O)c1ccccc1 (stereo not drawn) [Example 1],5.2 mol
5,CCn1c2ccc(/C(CC(c3ccccc3)N(OC(C)=O)C(C)=O)=N/OC(C)=O)cc2c2cc(/C(CC(c3ccccc3)N(OC(C)=O)C(C)=O)=N/OC(C)=O)ccc21 (stereo not drawn) [Example 3],6.2 mol
6,CCn1c2ccc(/C(CC(c3ccc(SC)cc3)N(OC(C)=O)C(C)=O)=N/OC(C)=O)cc2c2cc(/C(CC(c3ccc(SC)cc3)N(OC(C)=O)C(C)=O)=N/OC(C)=O)ccc21 (stereo not drawn) [Example 5],5.6 mol
